The exact form of at least one protein or probe is not confirmed. A negative result means that nothing was seen under these conditions.

The values below come from paper doi:10.1101/2024.02.16.579611.

The series relates to RNAP-σ70 holoenzyme (Eσ70) + KorB. As to the kind of experiment: native MS. The note with it: 2.5-fold excess KorB, Eσ70 dissociated, no ternary complex.

For the sequence “GTTACGCCAAGGACGAGTTTTAGCGGCTAAAGGTGTTGACGTGCGAGAAATGTTTAGCTAAACTTCTCTCATGTGCTGGCGGCTGTCACCGCTATGTTCA (double strand) [PkorA 100 bp]”, the binding result was “no binding”.
